PubChem BioAssay AID1508597 | Cure First – 2020
This is a random part of the about 2,100 reagents, in one setting of the screen. 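Calls flag viability under 80% in either arm, not effects specific to rucaparib; the reference for percent is not stated.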 Some reagents were tested in more than one well and are listed for each. Reagent sequences are not shown. The record does not give: the 100% reference.

Screen: 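Knock-downs altering ovarian cancer cell survival with or without PARP inhibitor rucaparib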 (primary screen)
Cells: human ovarian carcinoma lines grown from tumours: OCI-P5x (papillary serous) and OCI-C5x (clear cell)
Reagent: siRNA pool against human genes, 1.25 pmol siRNA per well
Duration: 72 h or 96 h, depending on the cell culture
Conditions: rucaparib 20 µM (about IC30) or vehicle, present until read-out
Rucaparib or vehicle: Rucaparib
Cell line: OCI-C5x (clear cell)
Measurement: 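ATP luminescence measured at 72 or 96 h according to the culture, then normalised and expressed as percent viability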
Direction: viability, normalised: higher = more viable cells remaining
Active means: 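a well counts as a hit if its normalised viability is under 80 percent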
Calls: active = viability under 80%; inactive = viability 80% or more

no.	gene symbol	technical replicate	viability, normalised (%)	Outcome
1	TRIP13	1	51.3	active
2	TRIP13	2	44.8	active
3	TRIP13	3	61.1	active
4	NME1-NME2	1	45.9	active
5	NME1-NME2	2	46.4	active
6	NME1-NME2	3	59.4	active
7	CNOT12	1	48.3	active
8	CNOT12	2	50.1	active
9	CNOT12	3	33.7	active
10	TRIM68	1	69.8	active
11	TRIM68	2	51.1	active
12	TRIM68	3	46	active
13	XPO5	1	87.8	inactive
14	XPO5	2	75	active
15	XPO5	3	62.4	active
16	AIPL1	1	50.6	active
17	AIPL1	2	47.2	active
18	AIPL1	3	43	active
19	PCBD1	1	34.8	active
20	PCBD1	2	52	active
21	PCBD1	3	36.6	active
22	PRKG1	1	52.3	active
23	PRKG1	2	53.4	active
24	PRKG1	3	45.4	active
25	RALY	1	40.3	active
26	RALY	2	50	active
27	RALY	3	40.8	active
28	NEK9	1	59.3	active
29	NEK9	2	74.2	active
30	NEK9	3	55.4	active
31	CMPK1	1	60.9	active
32	CMPK1	2	53.5	active
33	CMPK1	3	69.9	active
34	HCK	1	54.5	active
35	HCK	1	46.3	active
36	HCK	2	60.4	active
37	HCK	2	50.2	active
38	HCK	3	40	active
39	HCK	3	55.8	active

6 entries from above, arranged by “viability, normalised (%)”, low to high:
gene symbol	technical replicate	viability, normalised (%)	Outcome
TRIM68	3	46	active
AIPL1	1	50.6	active
TRIM68	2	51.1	active
XPO5	3	62.4	active
XPO5	2	75	active
XPO5	1	87.8	inactive
